Data published in PubChem BioAssay AID590 (National Center for Advancing Translational Sciences (NCATS), 2007).
Among all 59,000 compounds or so, about 6,500 (11%) were called active. Inconclusive means that the source gave no clear call. Such entries were picked first, then a sample of the others. Cut-off read from the data, not from the text of the source: active = max dye-equivalent concentration above about 10 nM; inconclusive = mostly about 1.1 nM to 9.6 nM; inactive = weaker than that.

assay: qHTS Assay for Spectroscopic Profiling in A350 Spectral Region; conditions: Compound autofluorescence, 340/450 nm, Alexa 350 dye-equivalents; active compounds read high

Row | SMILES | max dye-equivalent concentration
1 | C[C@H](CN(C)C)C(=O)c1ccccc1C(=O)O | inactive
2 | CC(=O)Oc1cc2oc(=O)c3c(c2cc1Cl)CCC3 | active: 12000 nM
3 | COc1cccc(Cn2c(=O)c(-c3ccc(Cl)cc3)nc3cncnc32)c1 | inactive
4 | CC(=O)c1cc(C#N)c(SCc2ccncc2)nc1C | inactive
5 | Cc1cc(C)nc(N2CCC(C(=O)Nc3nnc(C)s3)CC2)n1 | inactive
6 | CN(C)c1ccc(-c2nccc(NCc3cccs3)n2)cc1 | inconclusive: 2.3 nM
7 | CC1(C)C(=O)Nc2ccccc2N1C(=O)COC(=O)Cn1cnc2ccccc2c1=O | inconclusive: 1.9 nM
8 | CCOc1cccc(-c2nn3c(-c4ccccn4)nnc3s2)c1 | inconclusive: 1.8 nM
9 | CCOC(=O)c1cccnc1SC(CC)C(=O)N1CCOCC1 (configuration not stated) | inconclusive: 1.8 nM
10 | CC1=CC(C#N)(C#N)C(C#N)(C#N)C(c2ccccc2)N1 (configuration not stated) | active: 1100 nM
11 | O=C(Nc1ccccc1)N1CC=C(c2ccc(F)cc2)CC1 | inconclusive: 3 nM
12 | Cc1ccc2c(c1)c1c3n2CCN(C(=O)CN2CCN(C)CC2)C3CCC1 (configuration not stated) | inconclusive: 2.2 nM
13 | Cc1c(C2Nc3ccccc3NC3=C2C(=O)CC(C)(C)C3)cnn1C (configuration not stated) | inconclusive: 1.2 nM
14 | Cn1c(=O)c(CCc2ccccc2)nc2cnc(Nc3ccccc3)nc21 | inconclusive: 3.7 nM
15 | CCOc1ccc(C2C(C#N)=C(N)SC(N)=C2C#N)cc1OCC | inconclusive: 2.8 nM
16 | COc1ccc(-c2c(C)oc3c(CN4CCN(CCO)CC4)c(O)ccc3c2=O)cc1OC | active: 82 nM
17 | Cc1cc(C)c2nc(NC3=NCN(CCN4CCOCC4)CN3)nc(C)c2c1 | inconclusive: 1.2 nM
18 | Cc1ccc(S(=O)(=O)N(C)CC(=O)N2CCc3ccccc32)cc1 | inconclusive: 1.1 nM
19 | CCCCCCn1cc(C(=O)O)c(=O)c2ccccc21 | inconclusive: 6.3 nM
20 | CC1CCc2c(C(=O)N3CCN(S(=O)(=O)c4cccs4)CC3)csc2C1 (configuration not stated) | inactive
21 | COc1ccc2cc(C(c3nnnn3CCc3ccccc3)N3CCC(O)CC3)c(=O)[nH]c2c1 (configuration not stated) | inconclusive: 4.3 nM
22 | Cc1cccc2cc(CN(CCCO)C(=O)Nc3ccccc3Cl)c(=O)[nH]c12 | inconclusive: 1.1 nM
23 | NC(=O)c1cc(N)ccc1N1CCCC1 | active: 78 nM
24 | CC(=O)OCC1=C(C(=O)O)N2C(=O)[C@@H](NC(=O)Cc3cccs3)[C@@H]2SC1 | inconclusive: 2.1 nM

Row | SMILES | max dye-equivalent concentration
25 | O=C(Cn1cnc2scc(-c3ccccc3)c2c1=O)N1CCOCC1 | inconclusive: 1.3 nM
26 | Cc1nc2ccc(S(=O)(=O)NCC(=O)N3CCC(N4CCCCC4)CC3)cc2s1 | inconclusive: 1.9 nM
27 | COC(=O)c1cccc(OCC(O)Cn2cnc3cc(C)c(C)cc32)c1 (configuration not stated) | inconclusive: 1.6 nM
28 | Cc1cc(C)nc(/N=C2\NC(=O)CC(C(=O)O)N2c2ccc(Oc3ccccc3)cc2)n1 (configuration not stated) | inactive
29 | c1cncc(-c2nnc(SCc3nc4ccccc4[nH]3)o2)c1 | inconclusive: 4.7 nM
30 | Cc1nnc(Oc2ccccc2)c2ccccc12 | inconclusive: 5.5 nM
31 | CCOC(=O)C1CCN(C(=O)CCn2c(=O)[nH]c3ccccc3c2=O)CC1 | inconclusive: 1.9 nM
32 | COc1ccc(S(=O)(=O)Nc2ccccc2C(=O)NCc2ccco2)cc1 | inconclusive: 4.9 nM
33 | CCN(CC)S(=O)(=O)c1cccc(-c2nnc(SCC(=O)c3ccc(Cl)s3)n2C)c1 | inactive
34 | Cc1sc2nc(C3CC3)nc(NCCNS(C)(=O)=O)c2c1C | inconclusive: 6.8 nM
35 | COc1ccccc1N1CCN(CCCNc2c(C)c(=O)n(C)c(=O)n2C)CC1 | inconclusive: 2.2 nM
36 | CCc1ccc2[nH]c(=O)c(CN(CCO)C(=O)NCc3ccccc3)cc2c1 | inconclusive: 1.3 nM
37 | CC(=O)c1sc(Nc2nc3ccc(F)cc3s2)nc1C | inconclusive: 9.1 nM
38 | CCc1ccc(N2CC(C(=O)NCc3ccc4c(c3)OCO4)CC2=O)cc1 (configuration not stated) | inconclusive: 2.1 nM
39 | CC(C)(C)c1ccc(S(=O)(=O)N2CCCC2C(=O)NC2=NCCS2)cc1 (configuration not stated) | inconclusive: 1.9 nM
40 | CN(C(=O)c1ccccc1)c1nc2ccccc2s1 | inactive
41 | COc1ccc(-c2cc(C(=O)NC(C)C)no2)cc1 | inconclusive: 3.4 nM
42 | COc1ccc(NC(=O)CCc2ccccc2)cc1NC(=O)c1ccco1 | inactive
43 | CCCCN1CN(S(=O)(=O)c2cccs2)c2nc3ccccc3nc21 | active: 22 nM
44 | C=CCOC(=O)C(C#N)c1nc2ccccc2nc1N1CCC(C(=O)OCC)CC1 (configuration not stated) | inconclusive: 5.5 nM
45 | CCOC(=O)N1CCC(NC(=O)c2cccnc2SC)CC1 | inactive
46 | O=C(N1CCCCC1)N1CCCN(C(=O)N2CCCCC2)CC1 | inconclusive: 2.3 nM
47 | COCC(C)NC(=O)c1noc2c1CCc1cc(OC)ccc1-2 (configuration not stated) | inactive

For reference, part of the list above:
Row | SMILES | max dye-equivalent concentration
5 | Cc1cc(C)nc(N2CCC(C(=O)Nc3nnc(C)s3)CC2)n1 | inactive
6 | CN(C)c1ccc(-c2nccc(NCc3cccs3)n2)cc1 | inconclusive: 2.3 nM
7 | CC1(C)C(=O)Nc2ccccc2N1C(=O)COC(=O)Cn1cnc2ccccc2c1=O | inconclusive: 1.9 nM
8 | CCOc1cccc(-c2nn3c(-c4ccccn4)nnc3s2)c1 | inconclusive: 1.8 nM
